Data on one substance can be found in publication PMC11322209.

Sequences of proteins named here, by UniProt entry; tags and fusion partners are left off.
UniProt P11142: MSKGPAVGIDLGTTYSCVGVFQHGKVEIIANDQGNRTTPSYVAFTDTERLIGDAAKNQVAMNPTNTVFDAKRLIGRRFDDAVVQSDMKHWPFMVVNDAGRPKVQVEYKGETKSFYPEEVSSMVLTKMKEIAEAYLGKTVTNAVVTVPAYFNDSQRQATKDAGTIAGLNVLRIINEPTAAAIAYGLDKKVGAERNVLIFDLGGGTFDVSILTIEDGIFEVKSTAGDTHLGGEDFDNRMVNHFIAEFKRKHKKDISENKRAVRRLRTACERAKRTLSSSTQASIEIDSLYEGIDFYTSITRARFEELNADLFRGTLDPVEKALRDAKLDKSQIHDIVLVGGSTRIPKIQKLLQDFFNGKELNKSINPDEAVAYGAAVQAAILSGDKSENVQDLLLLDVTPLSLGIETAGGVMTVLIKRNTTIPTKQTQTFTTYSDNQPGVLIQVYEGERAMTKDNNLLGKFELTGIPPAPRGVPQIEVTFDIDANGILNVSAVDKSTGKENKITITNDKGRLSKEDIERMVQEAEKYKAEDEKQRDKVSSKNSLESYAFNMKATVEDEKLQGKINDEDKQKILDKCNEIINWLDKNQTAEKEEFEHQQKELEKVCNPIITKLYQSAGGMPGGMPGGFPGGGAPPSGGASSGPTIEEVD

These are yes or no findings as the source states them, for the method shown. In cells and extracts the contact can be indirect. Some entries that bind do so weakly or less than the wild type. Sequences can lack the tags named with a protein.

The target in the test is T1, Flag-tagged GPX8 (Glutathione Peroxidase 8) (UniProt Q8TED1).
T1 sequence: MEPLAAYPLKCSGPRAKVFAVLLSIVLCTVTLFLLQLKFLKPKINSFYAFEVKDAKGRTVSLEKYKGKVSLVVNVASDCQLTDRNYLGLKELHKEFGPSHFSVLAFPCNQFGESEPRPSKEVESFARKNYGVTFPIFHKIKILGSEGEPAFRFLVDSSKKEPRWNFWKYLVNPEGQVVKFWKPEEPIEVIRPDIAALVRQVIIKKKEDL
Nature of the test: co-IP; lysates of transfected cells, FLAG antibody (1:200) on Protein G-Sepharose beads, 6 h at 4 °C, beads washed three times with lysis buffer, western blot.

For the substance “71-kDa heat shock cognate protein (Hsc70) (from UniProt P11142 1-646)”, the binding entry is recorded as “binds”.
